From PubChem BioAssay AID1487 (National Center for Advancing Translational Sciences (NCATS), 2009)
The list shows a part of the results. Shown are side measurements of this screen, not its main read-out; they come without a call. Most of these compounds were active or inconclusive in the main read-out, so they are no random draw. The note in brackets gives the kind of curve behind each potency; many fits are weak.

Assay: qHTS Assay for Modulators of Lamin A Splicing
Details: HeLa LMNA splicing GFP/RFP minigene ratio, 48 h
Procedure, shortened: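 S3 HeLa stable clones carrying a lamin A-EGFP splicing minigene plus DsRed2 were seeded at 600 cells/well in Opti-MEM with 2% FBS, pin-dosed and incubated 48 h at 37°C. Acumen cytometry (488 nm) gave the GFP/RFP total-intensity ratio.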

[1] = measured here: RFP viability control channel
[2] = measured here: GFP splicing reporter channel

Structure (SMILES) | AC50 [1] | AC50 [2]
O=[N+]([O-])c1cc(S(=O)(=O)C(F)(F)F)ccc1N1CCN(c2ccccc2)CC1 | 35.5 µM [rising, single point] | –
OCCNc1ncnc2ccc(Br)cc12 | 31.6 µM [rising, single point] | 35.5 µM [rising, single point]
CC(=O)NC(Cc1ccc(F)c(F)c1)C(=O)NC1CCN(C(=O)c2ccc(C)cc2)CC1 (stereo not given) | 0.0251 µM [falling, full curve, poor fit] | –
c1ccc(CNc2nc(-c3cccs3)nc3ccccc23)cc1 | 20 µM [rising, single point] | –
O=C(O)C1CC=CCC1C(=O)N1CCN(c2nc(-c3ccccc3Cl)c3cc(Br)ccc3n2)CC1 (stereo not given) | 7.94 µM [falling, partial curve, poor fit] | 35.5 µM [falling, single point]
CC1CCCCN1C(=O)c1ccc(S(=O)(=O)N2CCCCC2C)cc1 (stereo not given) | 12.6 µM [rising, single point] | 20 µM [rising, single point]
Cc1cc(C)c(NC(=O)Cn2cnc3c(oc4ccccc43)c2=O)c(C)c1 | 35.5 µM [rising, single point] | 35.5 µM [rising, partial curve]
Clc1ccc(Cn2c(/C=C/c3ccco3)nc3ccccc32)cc1 | 15.8 µM [rising, single point] | 15.8 µM [rising, partial curve]
CSc1ccccc1NC(=O)COc1ccc(Cl)cc1 | 35.5 µM [rising, single point] | –
O=C(Nc1ccc(C(F)(F)F)cc1)c1cc(-c2cccnc2)nc2ccc(Br)cc12 | 17.8 µM [falling, partial curve, poor fit] | –
Oc1ccc(CNc2ccccc2F)c2cccnc12 | 14.1 µM [rising, single point] | –
COc1ccc(N2CCN(c3oc(COc4ccccc4Cl)nc3C#N)CC2)cc1 | 35.5 µM [rising, single point] | 17.8 µM [rising, single point]
Cc1ccc2nc(SCc3nc4c(cnn4-c4ccccc4)c(=O)[nH]3)[nH]c2c1 | 35.5 µM [falling, partial curve] | –
CCOC(=O)c1cnc(-n2nc(C)cc2C)nc1NNc1cc(-c2ccccc2)nc(C)n1 | 5.62 µM [rising, single point] | –
CC(Oc1ccc(Br)cc1Br)C(=O)NC1CCCC1 (stereo not given) | – | 3.98 µM [falling, single point]
CCOc1ccc2nc(NCCNC(=O)C3CC3)c(C)cc2c1 | 3.55 µM [rising, partial curve, poor fit] | 11.2 µM [rising, partial curve]
COc1ccc(NC(=O)C2C(=O)NC3(C)CC2c2ccccc2O3)cc1 (stereo not given) | 31.6 µM [rising, single point] | –
O=C(NC1CCCC1)c1sc(=S)n2c1[nH]c(=O)c1ccccc12 | 7.08 µM [rising, partial curve] | –
COc1ccc(NC(=O)c2ccc(-n3c(C)ccc3C)cc2)c(OC)c1 | 0.501 µM [rising, full curve, poor fit] | –
Cc1ccc(C(CC(=O)O)Nc2nc(N3CCCCC3)nc(N3CCCCC3)n2)cc1 (stereo not given) | 20 µM [rising, single point] | 11.2 µM [rising, single point]
CCCc1cc(C(=O)N/N=C/c2ccc(CC)s2)c2ccccc2n1 | 7.08 µM [falling, partial curve] | 5.01 µM [falling, full curve, poor fit]
NC(CO)C(=O)NNCc1ccc(O)c(O)c1O (stereo not given) | 3.16 µM [falling, single point] | 22.4 µM [falling, partial curve, poor fit]
CCCCCCCCCCC(CO)CCCCCCCC (stereo not given) | 0.0251 µM [rising, full curve, poor fit] | –
CCOc1cc(/C=C2/NC(=O)NC2=O)cc([N+](=O)[O-])c1O | – | 0.0891 µM [falling, full curve, poor fit]
N#Cc1cc2sc3nnc(-c4ccncc4)n3c2cc1C#N | 35.5 µM [rising, single point] | –
COc1cccc(-n2cnc3sc4c(c3c2=O)CCC4)c1 | 0.0112 µM [falling, full curve] | 0.0158 µM [falling, full curve]
CCOC(=O)c1c(-c2ccccc2)csc1NC(=S)NC | 15.8 µM [rising, partial curve, poor fit] | –

Three compounds picked at random from those above:
Structure (SMILES) | AC50 [1] | AC50 [2]
CC1CCCCN1C(=O)c1ccc(S(=O)(=O)N2CCCCC2C)cc1 (stereo not given) | 12.6 µM [rising, single point] | 20 µM [rising, single point]
Cc1ccc2nc(SCc3nc4c(cnn4-c4ccccc4)c(=O)[nH]3)[nH]c2c1 | 35.5 µM [falling, partial curve] | –
CCOc1cc(/C=C2/NC(=O)NC2=O)cc([N+](=O)[O-])c1O | – | 0.0891 µM [falling, full curve, poor fit]

More entries follow.

Structure (SMILES) | AC50 [1] | AC50 [2]
CC1=C(C(=O)OCCNC(=O)c2ccccc2O)C(c2ccccc2[N+](=O)[O-])C(C(=O)OCC2CCCO2)=C(C)N1 (stereo not given) | 12.6 µM [rising, partial curve] | 17.8 µM [rising, partial curve]
Cc1cccc(C(=O)NCN2CCN(c3ccccc3C#N)CC2)c1 | 7.94 µM [rising, partial curve, poor fit] | 35.5 µM [falling, single point]
COC(=O)c1cc(COc2ccc3oc(C)c(C(=O)OC)c3c2)c(C)o1 | 35.5 µM [rising, single point] | –
COc1ccc(Cl)cc1N/C(N)=N/c1nc(C)cc(C)n1 | 17.8 µM [falling, partial curve, poor fit] | 15.8 µM [falling, partial curve]
CCOc1cc(/C=N/Nc2nc3ccccc3[nH]2)cc(Br)c1OCC(=O)N(C)C | – | 2.82 µM [falling, single point]
COc1ccc(NC(=O)CN(c2cc(C)cc(C)c2)S(=O)(=O)c2c(C)noc2C)cc1OC | 17.8 µM [rising, partial curve] | –
CCOC(=O)C1(CCc2ccccc2)CCN(Cc2ccc(O)cc2)CC1 | 0.00447 µM [falling, full curve, poor fit] | 0.282 µM [falling, partial curve]
Cc1onc(-c2ccccc2Cl)c1C(=O)N1CCN(C/C=C/c2ccccc2)CC1 | 20 µM [rising, partial curve] | –
Cc1ccc(-n2c(C)cc(/C=N/NC(=O)c3ccc(CN4CCOCC4)cc3)c2C)cc1 | 17.8 µM [rising, partial curve] | 12.6 µM [rising, partial curve]
CCOc1ccc(OCCSc2nnnn2-c2ccccc2)cc1 | 35.5 µM [rising, single point] | –
OCCC1CN(Cc2cnn(-c3ccccc3Cl)c2)CCN1Cc1ccsc1 (stereo not given) | 7.94 µM [falling, partial curve, poor fit] | –
COC(=O)c1ccccc1Sc1c(/C=N/OCc2ccc(Cl)cc2)c(C(F)(F)F)nn1C | 11.2 µM [rising, partial curve] | –
O=S(=O)(c1ccccc1)c1nc(NC2CC2)sc1Cl | 35.5 µM [falling, single point] | –
CCCn1c(=O)c2[nH]c(-c3ccc(OCC(=O)Nc4ccc(C#N)cc4)cc3)nc2n(CCC)c1=O | 2.24 µM [falling, partial curve, poor fit] | 1.78 µM [falling, partial curve, poor fit]
CCN(c1ccccc1)S(=O)(=O)c1ccc(C(=O)Nc2nnc(COC)o2)cc1 | 11.2 µM [rising, partial curve] | 8.91 µM [rising, partial curve, poor fit]
COc1ccc(OC)c(/C=N/c2c(-c3ccc(O)c(OC)c3)nc3ccccn23)c1 | – | 0.00501 µM [falling, full curve, poor fit]
COc1ccc2c(c1)CC/C(=C\C=C\c1ccccc1OC)C2=O | 31.6 µM [rising, single point] | –
CCCCOCC1CC(CC#CCN2CCCCC2)C(=O)O1 (stereo not given) | 0.316 µM [falling, full curve, poor fit] | 0.891 µM [falling, full curve]
CC1(C)CC(C)(c2ccc(O)cc2O)N(c2cccc(Cl)c2)C(=S)N1 (stereo not given) | 11.2 µM [rising, single point] | –
Cc1ccc(S(=O)(=O)NCC(=O)N(c2ccccc2)C(C(=O)NCc2ccccc2)c2ccco2)cc1 (stereo not given) | 14.1 µM [rising, partial curve] | 11.2 µM [rising, partial curve, poor fit]
CCNc1nc(NCc2ccccc2)nc(SCC(=O)Nc2ccccc2)n1 | 35.5 µM [rising, partial curve] | –
COc1ccc(/C=N/NC(=O)c2ccc(NC(=O)c3cccc([N+](=O)[O-])c3)cc2)c(OC)c1 | – | 0.316 µM [falling, full curve, poor fit]
COc1ccc(/C=N/Nc2ncnc3scc(-c4ccccc4)c23)cc1OC | 11.2 µM [rising, partial curve] | –
O=[N+]([O-])c1ccc(Sc2n[nH]c(-c3ccccc3)n2)nc1 | 10 µM [rising, partial curve] | 7.08 µM [rising, full curve, poor fit]
CC(C)(C)OC(=O)C(C(=O)OC(C)(C)C)c1ccc(Cl)nn1 | 0.794 µM [falling, full curve, poor fit] | –
N#CC1(c2ccc(NC(=O)c3ccccc3F)cc2)CCCC1 | 31.6 µM [rising, single point] | –
Cc1cc(=O)oc2cc(OCC(O)CN3CCN(c4ccc(F)cc4)CC3)ccc12 (stereo not given) | 12.6 µM [rising, single point] | –
